# Test results published in PubChem BioAssay AID504444 (National Center for Advancing Translational Sciences (NCATS), 2011).
# Screen size: about 360,000 compounds; about 7,500 (2.1%) were called active. The shares of active, inactive and inconclusive entries below differ from those in the screen. Calls come from the whole dose curve; as a rule, active = well fitted inhibition curve with a large enough effect; inconclusive = small, poorly fitted or top-dose-only effect, or effect the other way; inactive = flat fitted curve, though single readings scatter. Potencies beside an inconclusive call are fits to weak or partial responses and may not hold up.
# Assay: Nrf2 qHTS screen for inhibitors; note: nearly all actives have a fitted effect of over 60% in size
# Conditions: A549 ARE-Fluc reporter, luciferase luminescence, 18-24 h; series mostly up to 46 µM
# In short: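 A549 ARE_Fluc cells (5000/well, 5% FBS OPTI-MEM) pre-incubated 2 h, then treated with compounds 18-24 h at 37C/5% CO2 in concentration-response. CellTiter-Fluor viability read first; BugLite luciferase luminescence after 15 min at room temperature gives Nrf2 activity.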
# Potency is the fitted concentration of half-maximal effect.
row,Structure (SMILES),Potency
1,CCOC(=O)c1c(N)sc(N)c1C(=O)OCC,inactive
2,CCc1ccc(NC(=O)N2CC(C)Oc3ccc(C)cc32)cc1 (centres undefined),inactive
3,Cc1nc(-c2ccccc2)cn2c1nc1ccccc12,"inconclusive: 29.1 µM [activator, single point]"
4,Cc1ccc2c(c1)C1(C(=O)N2C)N2CC3(C)CN1CC(C)(C2)C3=O (centres undefined),inactive
5,COc1ccc(S(=O)(=O)NCc2ccncc2)cc1NC(=O)c1ccc(Cl)cc1,active: 4.61 µM
6,CC(C)(C)OC(=O)N1CCC(c2c(C(=O)NCCN3CCC(Cc4ccccc4)CC3)cnn2-c2ccccc2)CC1,"inconclusive: 2.06 µM [activator, partial curve]"
7,CCOC(=O)c1cnc2ccc(C(=O)OC)cc2c1Nc1ccc(C(=O)O)cc1,"inconclusive: 16.4 µM [activator, partial curve]"
8,O=S(=O)(c1ccc(Cl)cc1)N1CCN=C1SCc1cccc(Cl)c1,"inconclusive: 16.4 µM [falling, partial curve]"
9,O=c1c2ccccc2sn1-c1ccccc1,inactive
10,O=C(c1cc(-c2ccccc2Cl)nc2ccc(Br)cc12)N1CCN(c2ccccn2)CC1,"inconclusive: 29.1 µM [falling, single point]"
11,O=C(O)c1nn(CC(=O)N2CCC(Cc3ccccc3)CC2)c(=O)c2ccccc12,"inconclusive: 16.4 µM [falling, partial curve, poor fit]"
12,CC#CC(=O)N1CCCC(Cc2cccc(OC)c2)(C(=O)OCC)C1 (centres undefined),"inconclusive: 11.6 µM [activator, partial curve]"
13,COc1cccc(C2=NOC(C(=O)Nc3ccc(OC)c(OC)c3)C2)c1 (centres undefined),"inconclusive: 9.2 µM [falling, partial curve, poor fit]"
14,O=C(Nc1ccccc1N1CCOCC1)c1cc2ccccc2o1,"inconclusive: 23.1 µM [activator, partial curve]"
15,Nc1c(C(=O)NCCN2CCOCC2)c2nc3ccccc3nc2n1CCc1ccccc1,active: 14.6 µM
16,Cn1cc(CN2CCN(c3ncccn3)CC2)c(-c2cccc(Cl)c2)n1,"inconclusive: 20.6 µM [falling, single point]"
17,COc1ccccc1Nc1nc2ccc(Cl)cc2nc1-n1nc(C)cc1C,"inconclusive: 2.31 µM [activator, full curve, poor fit]"
18,O=S(=O)(NC1CCCC1)c1cccc(-c2nnc(-c3ccccc3)o2)c1,"inconclusive: 18.4 µM [falling, partial curve, poor fit]"
19,CC(Nc1nc(-c2cccc(Br)c2)cs1)c1nc2cc(Cl)c(N3CCCCC3)cc2n1CCOCCO (centres undefined),"inconclusive: 20.6 µM [falling, single point]"

# Sorted by length of the SMILES (ascending): some entries from above
row,Structure (SMILES),Potency
1,CCOC(=O)c1c(N)sc(N)c1C(=O)OCC,inactive
12,CC#CC(=O)N1CCCC(Cc2cccc(OC)c2)(C(=O)OCC)C1 (centres undefined),"inconclusive: 11.6 µM [activator, partial curve]"
5,COc1ccc(S(=O)(=O)NCc2ccncc2)cc1NC(=O)c1ccc(Cl)cc1,active: 4.61 µM
